PubChem BioAssay AID1224828 | NIAID, 2016

Assay: 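Find genes required for NF-kappaB p65 moving into the nucleus after LPS in mouse macrophages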 (primary screen)
Cell system: mouse RAW264.7 G9 macrophage reporter cells (GFP-p65, Tnf promoter-mCherry)
Reagent: siRNA pool against mouse genes, 100 nM
Duration: 2 days siRNA transfection, then 40 min LPS before fixation
Treatment: LPS (Salmonella minnesota R595) at 10 ng/ml
Measured: 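Imaged p65 nuclear translocation ratio, normalised to the plate median, converted to robust z-scores and averaged across two replicates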
Direction: p65 translocation robust z-score: higher = more nuclear NF-kappaB p65 after LPS than the plate median; nuclear/cytoplasmic p65 ratio: higher = more nuclear NF-kappaB p65
Active means: 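Active if robust z is above 3.3 (negative regulators) or below -1.56, the Tlr4 control median (positive regulators); activity score 50 or more; control wells not called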
Calls: active = hit (p65 shift raised or lowered); inactive = no clear change
Here is one part, drawn at random, of about 17,000 reagents. Over the whole deposit, 762 (4.5%) were called active. 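Active calls include both raised and lowered p65 entry, mostly lowered; wells with fewer than 50 cells lack a z-score.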 The raw values are shown without normalisation. A number with no mark means an inactive call. Reagents against one gene are numbered here.

| gene knocked down | reagent | p65 translocation robust z-score | nuclear/cytoplasmic p65 ratio, rep 1 | nuclear/cytoplasmic p65 ratio, rep 2 | low cell count flag |
| --- | --- | --- | --- | --- | --- |
| Ier2 (immediate early response 2) | 1 | 0.22 | 1.62 | 1.43 | enough cells to score |
| Mettl25 (methyltransferase like 25) | 1 | – | 1.49 | 1.62 | fewer than 50 cells per well; well left out of scoring |
| Ceacam12 (CEA cell adhesion molecule 12) | 1 | -0.32 | 1.55 | 1.73 | enough cells to score |
| Frs2 (fibroblast growth factor receptor substrate 2) | 1 | -0.03 | 1.43 | 1.37 | enough cells to score |
| Smarca2 | 1 | 0.61 | 1.57 | 1.71 | enough cells to score |
| Astn2 (astrotactin 2) | 1 | -1.11 | 1.41 | 1.38 | enough cells to score |
| Evpl (envoplakin) | 1 | -1.03 | 1.33 | 1.23 | enough cells to score |
| Mcm2 (minichromosome maintenance complex component 2) | 1 | -0.27 | 1.4 | 1.31 | enough cells to score |
| Or6d15 (olfactory receptor family 6 subfamily D member 15) | 1 | – | 1.46 | 1.16 | fewer than 50 cells per well; well left out of scoring |
| Tnn (tenascin N) | 1 | -0.89 | 1.28 | 1.09 | enough cells to score |
| Tmem176a (transmembrane protein 176A) | 1 | – | 1.39 | 1.55 | fewer than 50 cells per well; well left out of scoring |
| Ptpa (protein phosphatase 2 protein activator) | 1 | 0.21 | 1.5 | 1.46 | enough cells to score |
| Ubd (ubiquitin D) | 1 | -0.91 | 1.39 | 1.37 | enough cells to score |
| Chia1 (chitinase, acidic 1) | 1 | -0.19 | 1.58 | 1.58 | enough cells to score |
| Pced1b (PC-esterase domain containing 1B) | 1 | 0.39 | 1.71 | 1.66 | enough cells to score |
| Fpr3 (formyl peptide receptor 3) | 1 | 0.19 | 1.52 | 1.62 | enough cells to score |
| Fpr3 (formyl peptide receptor 3) | 2 | 1.97 | 1.9 | 1.75 | enough cells to score |
| Cckbr (cholecystokinin B receptor) | 1 | -1.16 | 1.35 | 1.19 | enough cells to score |
| Padi4 (peptidyl arginine deiminase, type IV) | 1 | – | 1.54 | 1.49 | fewer than 50 cells per well; well left out of scoring |
| Pcp4 (Purkinje cell protein 4) | 1 | 0.28 | 1.46 | 1.29 | enough cells to score |
| Glul (glutamate-ammonia ligase) | 1 | – | 1.54 | 1.36 | fewer than 50 cells per well; well left out of scoring |
| Nradd (neurotrophin receptor associated death domain) | 1 | 2.2 | 2.32 | 1.62 | enough cells to score |
| Gcnt2 (glucosaminyl (N-acetyl) transferase 2) | 1 | 0.04 | 1.4 | 1.42 | enough cells to score |
| Nptx2 (neuronal pentraxin 2) | 1 | 0.29 | 1.86 | 1.49 | enough cells to score |

Not a retest: entries from further up.
| gene knocked down | reagent | p65 translocation robust z-score | nuclear/cytoplasmic p65 ratio, rep 1 | nuclear/cytoplasmic p65 ratio, rep 2 | low cell count flag |
| --- | --- | --- | --- | --- | --- |
| Smarca2 | 1 | 0.61 | 1.57 | 1.71 | enough cells to score |
| Astn2 (astrotactin 2) | 1 | -1.11 | 1.41 | 1.38 | enough cells to score |
| Evpl (envoplakin) | 1 | -1.03 | 1.33 | 1.23 | enough cells to score |
